According to publication doi:10.1101/2024.08.18.608516:
These are yes or no findings as the source states them, for the method shown. In cells and extracts the contact can be indirect. Some results given as binding are weak or reduced against the parent protein; the word gives no strength. Where a sequence is shown, tags or fusion partners need not be part of it.

Protein sequences, listed by entry. Tags and fused reporters are not part of them.
UniProt P51617: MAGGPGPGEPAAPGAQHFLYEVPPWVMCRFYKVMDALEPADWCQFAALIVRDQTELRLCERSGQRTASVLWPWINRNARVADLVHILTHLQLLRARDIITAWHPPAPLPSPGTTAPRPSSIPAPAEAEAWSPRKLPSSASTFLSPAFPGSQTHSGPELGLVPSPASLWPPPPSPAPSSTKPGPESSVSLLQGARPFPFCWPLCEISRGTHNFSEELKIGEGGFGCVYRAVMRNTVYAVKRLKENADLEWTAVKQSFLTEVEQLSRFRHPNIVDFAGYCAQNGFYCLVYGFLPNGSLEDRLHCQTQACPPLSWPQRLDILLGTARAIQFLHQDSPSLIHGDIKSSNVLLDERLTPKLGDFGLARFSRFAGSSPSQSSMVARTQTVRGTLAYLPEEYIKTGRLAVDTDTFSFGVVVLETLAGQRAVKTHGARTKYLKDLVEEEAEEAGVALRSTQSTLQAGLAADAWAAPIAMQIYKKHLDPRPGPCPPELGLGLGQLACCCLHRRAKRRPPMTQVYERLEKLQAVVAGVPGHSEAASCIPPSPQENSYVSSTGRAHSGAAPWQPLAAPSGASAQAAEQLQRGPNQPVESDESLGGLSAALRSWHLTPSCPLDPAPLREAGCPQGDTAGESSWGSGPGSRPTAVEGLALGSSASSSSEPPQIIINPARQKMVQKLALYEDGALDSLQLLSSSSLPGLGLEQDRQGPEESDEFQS
UniProt Q8IXJ9: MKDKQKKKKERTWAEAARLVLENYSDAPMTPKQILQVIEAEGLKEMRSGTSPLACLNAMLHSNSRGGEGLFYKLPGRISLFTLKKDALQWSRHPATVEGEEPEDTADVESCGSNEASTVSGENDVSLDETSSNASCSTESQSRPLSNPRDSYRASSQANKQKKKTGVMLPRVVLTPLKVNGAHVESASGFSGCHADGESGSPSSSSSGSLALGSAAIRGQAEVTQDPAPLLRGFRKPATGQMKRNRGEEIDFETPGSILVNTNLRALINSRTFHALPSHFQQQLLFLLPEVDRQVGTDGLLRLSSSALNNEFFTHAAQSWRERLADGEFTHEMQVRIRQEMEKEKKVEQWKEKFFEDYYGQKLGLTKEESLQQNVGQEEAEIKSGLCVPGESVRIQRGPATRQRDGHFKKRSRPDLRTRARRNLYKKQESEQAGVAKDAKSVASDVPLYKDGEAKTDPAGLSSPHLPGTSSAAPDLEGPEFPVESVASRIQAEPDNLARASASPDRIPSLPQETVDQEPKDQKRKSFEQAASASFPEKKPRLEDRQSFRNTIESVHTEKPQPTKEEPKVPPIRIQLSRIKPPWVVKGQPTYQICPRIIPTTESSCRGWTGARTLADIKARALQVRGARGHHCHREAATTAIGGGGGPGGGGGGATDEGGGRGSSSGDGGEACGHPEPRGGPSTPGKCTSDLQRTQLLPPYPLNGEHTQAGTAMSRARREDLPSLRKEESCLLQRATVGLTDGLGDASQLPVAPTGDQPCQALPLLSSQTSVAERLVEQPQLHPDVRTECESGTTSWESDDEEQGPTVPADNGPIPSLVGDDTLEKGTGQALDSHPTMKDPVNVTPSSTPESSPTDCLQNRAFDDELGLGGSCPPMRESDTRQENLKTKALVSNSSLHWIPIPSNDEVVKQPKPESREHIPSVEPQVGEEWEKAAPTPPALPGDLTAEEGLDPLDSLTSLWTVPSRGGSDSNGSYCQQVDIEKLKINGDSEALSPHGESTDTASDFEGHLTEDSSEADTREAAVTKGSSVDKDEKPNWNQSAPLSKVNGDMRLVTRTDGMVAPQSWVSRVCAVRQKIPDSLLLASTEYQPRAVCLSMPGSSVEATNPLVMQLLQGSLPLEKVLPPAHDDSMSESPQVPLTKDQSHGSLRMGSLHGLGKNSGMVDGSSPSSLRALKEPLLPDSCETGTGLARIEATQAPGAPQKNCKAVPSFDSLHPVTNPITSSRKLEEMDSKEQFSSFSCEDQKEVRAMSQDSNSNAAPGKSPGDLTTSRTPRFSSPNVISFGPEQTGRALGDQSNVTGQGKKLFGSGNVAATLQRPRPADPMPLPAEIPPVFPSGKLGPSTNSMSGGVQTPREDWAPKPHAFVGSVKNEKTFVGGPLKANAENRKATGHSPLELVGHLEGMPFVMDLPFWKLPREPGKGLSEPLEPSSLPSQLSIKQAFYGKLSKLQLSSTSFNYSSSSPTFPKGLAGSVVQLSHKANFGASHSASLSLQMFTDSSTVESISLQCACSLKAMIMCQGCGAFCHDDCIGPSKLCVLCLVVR

Key:
FLAG-Tak1 (mouse) = molecular target: T1, FLAG-Tak1 (mouse) (UniProt Q62073); experiment: co-IP
T1 sequence: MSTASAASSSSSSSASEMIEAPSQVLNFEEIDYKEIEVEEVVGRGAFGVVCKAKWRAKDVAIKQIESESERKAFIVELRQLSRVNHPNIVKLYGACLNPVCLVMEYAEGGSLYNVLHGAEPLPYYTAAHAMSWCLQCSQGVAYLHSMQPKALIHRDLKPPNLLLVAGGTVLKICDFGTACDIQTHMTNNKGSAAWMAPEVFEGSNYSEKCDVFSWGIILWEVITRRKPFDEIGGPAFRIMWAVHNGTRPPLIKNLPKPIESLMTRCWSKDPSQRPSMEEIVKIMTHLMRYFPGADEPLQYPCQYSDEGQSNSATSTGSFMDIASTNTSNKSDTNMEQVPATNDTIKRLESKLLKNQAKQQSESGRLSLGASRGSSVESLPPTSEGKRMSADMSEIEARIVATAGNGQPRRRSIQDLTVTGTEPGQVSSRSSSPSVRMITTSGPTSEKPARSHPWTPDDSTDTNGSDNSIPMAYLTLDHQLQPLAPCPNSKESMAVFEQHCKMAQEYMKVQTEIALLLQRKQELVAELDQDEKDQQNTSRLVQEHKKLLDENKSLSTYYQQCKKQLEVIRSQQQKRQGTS

FLAG-Traf6 (mouse) = molecular target: T2, FLAG-Traf6 (mouse) (UniProt P70196); experiment: co-IP
T2 sequence: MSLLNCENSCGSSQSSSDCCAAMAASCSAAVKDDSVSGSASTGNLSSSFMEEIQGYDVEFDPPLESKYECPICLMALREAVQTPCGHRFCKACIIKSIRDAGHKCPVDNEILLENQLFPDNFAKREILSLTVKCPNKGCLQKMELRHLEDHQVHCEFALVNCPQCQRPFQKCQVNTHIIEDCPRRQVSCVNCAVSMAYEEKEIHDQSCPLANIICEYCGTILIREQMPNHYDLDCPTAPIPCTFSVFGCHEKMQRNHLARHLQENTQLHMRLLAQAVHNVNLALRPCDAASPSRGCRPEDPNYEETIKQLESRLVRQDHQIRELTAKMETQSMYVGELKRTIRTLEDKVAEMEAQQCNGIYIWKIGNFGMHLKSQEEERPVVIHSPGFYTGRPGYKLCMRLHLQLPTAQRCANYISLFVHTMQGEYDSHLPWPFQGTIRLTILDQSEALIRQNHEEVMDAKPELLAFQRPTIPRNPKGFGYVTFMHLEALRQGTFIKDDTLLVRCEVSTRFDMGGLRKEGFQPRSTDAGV

| binding (FLAG-Tak1 (mouse)) | binding (FLAG-Traf6 (mouse)) | Substance |
| --- | --- | --- |
| binds | – | HA-IRAK1 (from UniProt P51617 1-712) |
| – | binds | Myc-ASXL1-WT (from UniProt Q8IXJ9 1-1541) |
